Data published in the supplement of paper PMC12823440, “Inhibitors supercharge kinase turnover through native proteolytic circuits” (Nature, 2025).
The other results are listed elsewhere or left out. The calls rarely recur for the same compound in another form.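 Kinases were expressed as nanoluciferase fusions in K562 cells and luminescence was read every 4 h between 2 and 18 h as percent of control, DMSO set to 100% and a positive control to 0%. A time point counts as decreased when the signal drops significantly (2 sigma). The hit call is the authors' own, does not follow from the count of time points alone, and its rule is not shown.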

The chains behind the UniProt entries cited, without tags or fusion partners. Where a name states a change or a piece, a line headed by the entry shows the natural chain unless it says otherwise.
UniProt P00519, whole entry: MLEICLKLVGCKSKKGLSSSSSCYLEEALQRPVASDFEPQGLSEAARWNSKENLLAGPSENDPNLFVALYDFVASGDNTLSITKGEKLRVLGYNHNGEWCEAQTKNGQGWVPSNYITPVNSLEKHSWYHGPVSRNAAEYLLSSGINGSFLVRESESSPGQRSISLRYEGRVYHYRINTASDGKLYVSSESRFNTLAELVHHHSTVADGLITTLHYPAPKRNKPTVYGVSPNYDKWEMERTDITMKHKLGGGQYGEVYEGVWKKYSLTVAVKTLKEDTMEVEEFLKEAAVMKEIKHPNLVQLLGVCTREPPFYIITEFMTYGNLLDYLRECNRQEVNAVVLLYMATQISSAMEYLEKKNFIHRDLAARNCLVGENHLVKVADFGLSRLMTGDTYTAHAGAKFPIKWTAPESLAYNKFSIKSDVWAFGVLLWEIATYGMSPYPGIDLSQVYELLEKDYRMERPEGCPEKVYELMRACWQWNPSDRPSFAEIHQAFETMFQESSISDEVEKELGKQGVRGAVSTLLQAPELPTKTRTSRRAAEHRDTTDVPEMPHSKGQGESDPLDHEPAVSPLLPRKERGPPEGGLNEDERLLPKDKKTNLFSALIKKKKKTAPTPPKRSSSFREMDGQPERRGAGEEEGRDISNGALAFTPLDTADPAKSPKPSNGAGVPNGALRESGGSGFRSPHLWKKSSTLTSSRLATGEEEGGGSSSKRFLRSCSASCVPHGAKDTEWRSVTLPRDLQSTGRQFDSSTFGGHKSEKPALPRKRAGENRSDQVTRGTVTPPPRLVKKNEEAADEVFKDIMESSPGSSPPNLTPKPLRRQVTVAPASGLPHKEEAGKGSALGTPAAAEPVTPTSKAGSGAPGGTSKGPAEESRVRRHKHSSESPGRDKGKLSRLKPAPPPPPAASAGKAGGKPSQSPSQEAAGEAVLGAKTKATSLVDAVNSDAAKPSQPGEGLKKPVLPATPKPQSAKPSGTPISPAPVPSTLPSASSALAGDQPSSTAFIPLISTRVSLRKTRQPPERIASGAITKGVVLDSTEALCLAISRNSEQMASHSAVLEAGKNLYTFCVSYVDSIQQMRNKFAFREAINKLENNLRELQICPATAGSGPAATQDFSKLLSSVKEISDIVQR
UniProt P31749: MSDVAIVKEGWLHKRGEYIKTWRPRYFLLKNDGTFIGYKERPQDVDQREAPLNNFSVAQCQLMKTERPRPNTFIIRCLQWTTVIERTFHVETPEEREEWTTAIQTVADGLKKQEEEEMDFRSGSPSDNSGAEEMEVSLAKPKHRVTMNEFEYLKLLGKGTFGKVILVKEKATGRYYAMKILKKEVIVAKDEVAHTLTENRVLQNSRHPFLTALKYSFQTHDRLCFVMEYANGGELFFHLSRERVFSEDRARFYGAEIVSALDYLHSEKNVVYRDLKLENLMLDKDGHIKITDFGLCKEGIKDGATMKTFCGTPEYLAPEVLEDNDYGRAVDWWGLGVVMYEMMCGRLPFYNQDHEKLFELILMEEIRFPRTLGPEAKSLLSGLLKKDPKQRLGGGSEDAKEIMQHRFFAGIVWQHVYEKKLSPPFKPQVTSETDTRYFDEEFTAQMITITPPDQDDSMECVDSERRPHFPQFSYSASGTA
UniProt Q9UM73: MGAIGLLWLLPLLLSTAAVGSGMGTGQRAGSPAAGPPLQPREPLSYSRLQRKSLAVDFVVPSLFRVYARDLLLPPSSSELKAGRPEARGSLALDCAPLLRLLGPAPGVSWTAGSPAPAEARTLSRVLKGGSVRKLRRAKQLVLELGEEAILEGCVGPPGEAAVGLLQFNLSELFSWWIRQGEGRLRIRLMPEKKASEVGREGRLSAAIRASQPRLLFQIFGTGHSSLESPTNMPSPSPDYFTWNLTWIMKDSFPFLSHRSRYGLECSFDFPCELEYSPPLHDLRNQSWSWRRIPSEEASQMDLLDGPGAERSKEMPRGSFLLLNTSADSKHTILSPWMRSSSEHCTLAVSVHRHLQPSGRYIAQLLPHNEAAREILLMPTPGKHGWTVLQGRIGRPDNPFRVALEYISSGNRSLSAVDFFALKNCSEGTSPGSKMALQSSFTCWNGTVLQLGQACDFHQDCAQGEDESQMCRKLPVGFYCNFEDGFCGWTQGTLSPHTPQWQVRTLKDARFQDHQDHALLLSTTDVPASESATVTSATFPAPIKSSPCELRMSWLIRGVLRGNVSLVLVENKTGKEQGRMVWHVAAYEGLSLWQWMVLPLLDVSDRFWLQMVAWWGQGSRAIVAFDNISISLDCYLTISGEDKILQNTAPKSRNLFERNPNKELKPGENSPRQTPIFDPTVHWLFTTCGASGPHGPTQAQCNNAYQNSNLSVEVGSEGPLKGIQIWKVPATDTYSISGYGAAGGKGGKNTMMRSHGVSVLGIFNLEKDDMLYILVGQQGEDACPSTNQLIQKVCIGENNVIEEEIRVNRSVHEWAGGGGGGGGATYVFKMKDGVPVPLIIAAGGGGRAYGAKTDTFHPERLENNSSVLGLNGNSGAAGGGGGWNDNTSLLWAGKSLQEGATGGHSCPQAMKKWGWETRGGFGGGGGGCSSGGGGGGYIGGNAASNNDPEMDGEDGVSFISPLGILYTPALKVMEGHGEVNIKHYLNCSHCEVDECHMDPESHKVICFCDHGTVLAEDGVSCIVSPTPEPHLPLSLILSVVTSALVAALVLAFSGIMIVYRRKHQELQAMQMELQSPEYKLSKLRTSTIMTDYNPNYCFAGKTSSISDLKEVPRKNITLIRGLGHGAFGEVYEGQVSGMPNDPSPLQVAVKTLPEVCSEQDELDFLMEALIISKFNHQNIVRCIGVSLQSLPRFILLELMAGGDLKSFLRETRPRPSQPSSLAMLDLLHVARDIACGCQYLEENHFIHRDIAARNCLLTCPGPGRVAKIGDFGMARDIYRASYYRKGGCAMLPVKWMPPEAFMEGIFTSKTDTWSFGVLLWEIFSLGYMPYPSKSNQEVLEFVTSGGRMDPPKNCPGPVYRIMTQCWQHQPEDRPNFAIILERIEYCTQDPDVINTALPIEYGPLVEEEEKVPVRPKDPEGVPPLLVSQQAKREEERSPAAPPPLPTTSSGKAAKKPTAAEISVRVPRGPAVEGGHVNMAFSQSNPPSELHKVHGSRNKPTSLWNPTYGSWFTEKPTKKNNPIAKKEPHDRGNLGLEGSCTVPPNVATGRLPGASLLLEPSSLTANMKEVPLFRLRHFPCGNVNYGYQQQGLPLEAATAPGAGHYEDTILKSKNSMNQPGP
UniProt P10398: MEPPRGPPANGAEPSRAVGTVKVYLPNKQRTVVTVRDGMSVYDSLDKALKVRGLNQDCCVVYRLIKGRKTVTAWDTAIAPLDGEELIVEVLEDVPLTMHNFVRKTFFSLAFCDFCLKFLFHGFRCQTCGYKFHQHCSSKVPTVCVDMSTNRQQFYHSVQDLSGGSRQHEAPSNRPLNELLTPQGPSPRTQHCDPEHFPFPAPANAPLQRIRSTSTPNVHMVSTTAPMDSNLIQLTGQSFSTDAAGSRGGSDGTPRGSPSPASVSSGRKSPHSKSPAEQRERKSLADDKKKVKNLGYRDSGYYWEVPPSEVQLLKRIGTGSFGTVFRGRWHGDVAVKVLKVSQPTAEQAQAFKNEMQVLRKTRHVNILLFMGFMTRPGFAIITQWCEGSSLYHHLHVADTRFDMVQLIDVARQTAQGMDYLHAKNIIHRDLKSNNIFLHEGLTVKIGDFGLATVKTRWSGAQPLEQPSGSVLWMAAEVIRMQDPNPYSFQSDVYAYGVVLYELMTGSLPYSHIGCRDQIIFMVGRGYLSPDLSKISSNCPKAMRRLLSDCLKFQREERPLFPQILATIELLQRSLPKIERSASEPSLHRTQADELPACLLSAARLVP
UniProt O14965: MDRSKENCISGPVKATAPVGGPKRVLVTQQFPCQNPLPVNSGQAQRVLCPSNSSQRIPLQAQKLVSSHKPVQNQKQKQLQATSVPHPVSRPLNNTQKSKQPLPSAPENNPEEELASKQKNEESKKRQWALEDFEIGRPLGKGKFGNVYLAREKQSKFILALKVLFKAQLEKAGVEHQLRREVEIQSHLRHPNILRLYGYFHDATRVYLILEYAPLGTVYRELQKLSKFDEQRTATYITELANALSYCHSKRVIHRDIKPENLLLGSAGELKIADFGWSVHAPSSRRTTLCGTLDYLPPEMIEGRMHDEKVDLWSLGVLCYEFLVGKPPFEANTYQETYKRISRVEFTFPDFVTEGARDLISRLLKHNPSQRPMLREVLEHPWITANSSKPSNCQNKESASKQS
UniProt Q96GD4, whole entry: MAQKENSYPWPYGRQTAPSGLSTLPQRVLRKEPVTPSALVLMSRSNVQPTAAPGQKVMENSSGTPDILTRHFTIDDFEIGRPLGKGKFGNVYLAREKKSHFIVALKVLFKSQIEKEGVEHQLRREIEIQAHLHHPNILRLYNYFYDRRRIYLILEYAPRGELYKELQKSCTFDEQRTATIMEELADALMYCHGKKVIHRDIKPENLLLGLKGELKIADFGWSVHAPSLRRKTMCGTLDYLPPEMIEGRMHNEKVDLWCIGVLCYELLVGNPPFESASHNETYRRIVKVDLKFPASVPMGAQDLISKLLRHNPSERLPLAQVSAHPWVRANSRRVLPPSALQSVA
UniProt Q9UQM7, whole entry: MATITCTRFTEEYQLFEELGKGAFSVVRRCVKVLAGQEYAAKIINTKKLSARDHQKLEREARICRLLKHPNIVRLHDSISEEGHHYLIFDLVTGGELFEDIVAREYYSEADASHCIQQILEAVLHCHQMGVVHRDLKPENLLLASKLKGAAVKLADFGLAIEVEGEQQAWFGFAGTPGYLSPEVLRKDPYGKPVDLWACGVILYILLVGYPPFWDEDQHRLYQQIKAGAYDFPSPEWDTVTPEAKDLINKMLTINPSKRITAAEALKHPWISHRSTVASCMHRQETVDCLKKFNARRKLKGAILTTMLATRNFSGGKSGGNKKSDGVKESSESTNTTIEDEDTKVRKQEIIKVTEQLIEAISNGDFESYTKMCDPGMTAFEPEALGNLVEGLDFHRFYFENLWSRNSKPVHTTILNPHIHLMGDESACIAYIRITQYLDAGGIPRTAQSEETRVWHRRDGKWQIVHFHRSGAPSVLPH
UniProt Q13555: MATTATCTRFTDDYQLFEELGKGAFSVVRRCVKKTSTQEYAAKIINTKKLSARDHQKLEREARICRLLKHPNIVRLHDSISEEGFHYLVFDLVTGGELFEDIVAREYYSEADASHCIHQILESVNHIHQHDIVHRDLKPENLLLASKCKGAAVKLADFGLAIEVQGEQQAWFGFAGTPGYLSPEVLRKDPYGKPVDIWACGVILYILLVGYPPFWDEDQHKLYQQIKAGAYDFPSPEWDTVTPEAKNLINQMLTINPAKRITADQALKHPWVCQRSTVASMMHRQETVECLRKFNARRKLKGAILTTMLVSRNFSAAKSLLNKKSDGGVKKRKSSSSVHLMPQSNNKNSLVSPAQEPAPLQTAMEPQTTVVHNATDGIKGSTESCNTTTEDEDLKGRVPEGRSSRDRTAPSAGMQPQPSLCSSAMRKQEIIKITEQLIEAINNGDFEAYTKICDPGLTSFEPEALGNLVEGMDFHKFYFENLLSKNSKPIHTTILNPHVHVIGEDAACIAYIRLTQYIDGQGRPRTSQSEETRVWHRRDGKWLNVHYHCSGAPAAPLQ
UniProt Q00526: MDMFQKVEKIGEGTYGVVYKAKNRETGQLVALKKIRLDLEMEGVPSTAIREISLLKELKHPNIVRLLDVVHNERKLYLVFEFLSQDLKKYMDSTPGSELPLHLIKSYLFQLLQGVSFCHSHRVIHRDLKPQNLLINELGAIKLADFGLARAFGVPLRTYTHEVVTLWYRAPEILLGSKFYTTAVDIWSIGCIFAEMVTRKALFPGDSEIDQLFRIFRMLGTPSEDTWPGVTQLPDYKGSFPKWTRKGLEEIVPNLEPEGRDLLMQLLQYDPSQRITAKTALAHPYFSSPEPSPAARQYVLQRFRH
UniProt Q00535, whole entry, looked up: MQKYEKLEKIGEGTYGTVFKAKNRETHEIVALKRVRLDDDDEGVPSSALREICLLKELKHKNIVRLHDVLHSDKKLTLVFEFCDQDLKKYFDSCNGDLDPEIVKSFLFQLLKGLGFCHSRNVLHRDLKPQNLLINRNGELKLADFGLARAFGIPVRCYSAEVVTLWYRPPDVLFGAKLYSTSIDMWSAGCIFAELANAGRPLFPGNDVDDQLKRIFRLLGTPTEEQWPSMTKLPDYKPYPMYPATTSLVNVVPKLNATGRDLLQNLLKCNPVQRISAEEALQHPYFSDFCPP
UniProt Q00534, whole entry: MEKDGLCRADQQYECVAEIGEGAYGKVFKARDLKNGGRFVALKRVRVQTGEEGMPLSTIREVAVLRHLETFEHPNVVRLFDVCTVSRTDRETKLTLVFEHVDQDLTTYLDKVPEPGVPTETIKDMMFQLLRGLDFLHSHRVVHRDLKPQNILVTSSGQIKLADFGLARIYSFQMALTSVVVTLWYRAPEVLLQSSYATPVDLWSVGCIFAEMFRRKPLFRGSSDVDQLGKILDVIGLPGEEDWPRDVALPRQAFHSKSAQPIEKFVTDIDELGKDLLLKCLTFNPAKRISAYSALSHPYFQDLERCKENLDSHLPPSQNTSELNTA

Tests used:
Assay in all cases: kinase-Nluc reporter destabilization hit call (1 = scored as downregulated) (binary); higher = compound decreases kinase abundance
Conditions in all cases: K562; 2-18 h
[1] = target: ABL1 (UniProt P00519)
[2] = target: AKT1 (UniProt P31749)
[3] = target: ALK (UniProt Q9UM73)
[4] = target: ARAF (UniProt P10398)
[5] = target: AURKA (UniProt O14965)
[6] = target: AURKB (UniProt Q96GD4)
[7] = target: AURKC (UniProt Q9UQB9)
[8] = target: BLK (UniProt P51451)
[9] = target: BMX (UniProt P51813)
[10] = target: BRAF (UniProt P15056)
[11] = tested on: BRAF_V600E
[12] = target: BTK (UniProt Q06187)
[13] = target: CAMK2A (UniProt Q9UQM7)
[14] = target: CAMK2G (UniProt Q13555)
[15] = target: CDK10 (UniProt Q15131)
[16] = target: CDK2 (UniProt P24941)
[17] = target: CDK3 (UniProt Q00526)
[18] = target: CDK4 (UniProt P11802)
[19] = target: CDK5 (UniProt Q00535)
[20] = target: CDK6 (UniProt Q00534)

Measured: kinase-Nluc reporter destabilization hit call

N#C/C(=C\c1ccc(O)c(O)c1)C(=O)O [Tyrphostin AG30] (10 µM)
inactive: [1] 0 | [2] 0 | [3] 0 | [4] 0 | [5] 0 | [6] 0 | [7] 0 | [8] 0 | [9] 0 | [10] 0 | [11] 0 | [12] 0 | [13] 0 | [14] 0 | [15] 0 | [16] 0 | [17] 0 | [18] 0 | [19] 0 | [20] 0

CN1CCC(CNc2ccc3ncc(-c4cccc(OC(F)(F)F)c4)n3n2)CC1 (2.5 µM)
inactive: [1] 0 | [2] 0 | [3] 0 | [4] 0 | [5] 0 | [6] 0 | [7] 0 | [8] 0 | [9] 0 | [10] 0 | [11] 0 | [12] 0 | [13] 0 | [14] 0 | [15] 0 | [16] 0 | [17] 0 | [18] 0 | [19] 0 | [20] 0

O=c1c2c([nH]n1-c1nc3ccccc3s1)CCCC2 (10 µM)
inactive: [1] 0 | [2] 0 | [3] 0 | [4] 0 | [5] 0 | [6] 0 | [7] 0 | [8] 0 | [9] 0 | [10] 0 | [11] 0 | [12] 0 | [13] 0 | [14] 0 | [15] 0 | [16] 0 | [17] 0 | [18] 0 | [19] 0 | [20] 0

Oc1c(F)cc(-c2cnccc2-c2ccc(N3CCOCC3)cc2)cc1F (10 µM)
inactive: [1] 0 | [2] 0 | [3] 0 | [4] 0 | [5] 0 | [6] 0 | [7] 0 | [8] 0 | [9] 0 | [10] 0 | [11] 0 | [12] 0 | [13] 0 | [14] 0 | [15] 0 | [16] 0 | [17] 0 | [18] 0 | [19] 0 | [20] 0

COc1cc(F)ccc1-c1ncnc(Nc2cccc(C[S@](C)(=N)=O)c2)n1 [Atuveciclib] (2.5 µM)
inactive: [1] 0 | [2] 0 | [3] 0 | [4] 0 | [5] 0 | [6] 0 | [7] 0 | [8] 0 | [9] 0 | [10] 0 | [11] 0 | [12] 0 | [13] 0 | [14] 0 | [15] 0 | [16] 0 | [17] 0 | [18] 0 | [19] 0 | [20] 0

CN1CCN(c2ccc(Nc3ncc4cc(C#N)c(=O)n(C5CCCC5)c4n3)cc2)CC1 (10 µM)
inactive: [1] 0 | [2] 0 | [3] 0 | [4] 0 | [5] 0 | [6] 0 | [7] 0 | [8] 0 | [9] 0 | [10] 0 | [11] 0 | [12] 0 | [13] 0 | [14] 0 | [15] 0 | [16] 0 | [17] 0 | [18] 0 | [19] 0 | [20] 0

C=CC(=O)N1CC[C@@H](Oc2nc(Nc3ccc(N4CCC(N5CCN(C)CC5)CC4)cc3)c(C(N)=O)nc2CC)C1 [Naquotinib (mesylate)] (2.5 µM)
inactive: [1] 0 | [2] 0 | [3] 0 | [4] 0 | [5] 0 | [6] 0 | [7] 0 | [8] 0 | [9] 0 | [10] 0 | [11] 0 | [12] 0 | [13] 0 | [14] 0 | [15] 0 | [16] 0 | [17] 0 | [18] 0 | [19] 0 | [20] 0

Nc1ncc(C(=O)NC2CN(C(=O)C3CC3)C2)c2ccc(-c3cccc(F)c3)nc12 (2 µM)
inactive: [1] 0 | [2] 0 | [3] 0 | [4] 0 | [5] 0 | [6] 0 | [7] 0 | [8] 0 | [9] 0 | [10] 0 | [11] 0 | [12] 0 | [13] 0 | [14] 0 | [15] 0 | [16] 0 | [17] 0 | [18] 0 | [19] 0 | [20] 0

Cn1ncc(NC(=O)c2nc(-c3c(F)cccc3F)sc2N)c1N1CC[C@@H](N)[C@H](F)CC1 (10 µM)
inactive: [1] 0 | [2] 0 | [3] 0 | [4] 0 | [5] 0 | [6] 0 | [7] 0 | [8] 0 | [9] 0 | [10] 0 | [11] 0 | [12] 0 | [13] 0 | [14] 0 | [15] 0 | [16] 0 | [17] 0 | [18] 0 | [19] 0 | [20] 0
